Results: patent US20200157226A1 (DRAGONFLY THERAPEUTICS, published 2020)
Results are given in words; binding and its absence hold for the method and conditions named. Some results given as binding are weak or reduced against the parent protein; the word gives no strength.

Protein sequences, listed by entry. Tags and fused reporters are not part of them. Lines headed by an entry give the natural chain unless they say otherwise; changes in a name come on top.
UniProt P26718: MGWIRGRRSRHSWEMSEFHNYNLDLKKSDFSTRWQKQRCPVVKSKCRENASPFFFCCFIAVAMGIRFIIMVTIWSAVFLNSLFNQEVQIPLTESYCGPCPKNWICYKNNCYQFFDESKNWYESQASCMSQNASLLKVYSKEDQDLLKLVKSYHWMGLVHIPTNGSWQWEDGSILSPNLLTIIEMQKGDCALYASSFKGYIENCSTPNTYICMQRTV

Assays:
[1] = molecular target: human NKG2D expressed on cells (primary human NK cells; EL4 mouse lymphoma cell lines engineered to express human NKG2D) (human) (UniProt P26718); assay: flow cytometry on EL4 cells expressing human NKG2D
[2] = molecular target: T1, 5T4 expressed on human cancer cell lines (human, UniProt Q13641 32-420); assay: flow cytometry on BxPC3 cells
T1 construct: the assays used endogenous 5T4 on BxPC3, H146, H1975, HCT116, MCF7 and N87 cells; also called tumor-associated 5T4 antigen; human trophoblast glycoprotein 5T4
T1 sequence: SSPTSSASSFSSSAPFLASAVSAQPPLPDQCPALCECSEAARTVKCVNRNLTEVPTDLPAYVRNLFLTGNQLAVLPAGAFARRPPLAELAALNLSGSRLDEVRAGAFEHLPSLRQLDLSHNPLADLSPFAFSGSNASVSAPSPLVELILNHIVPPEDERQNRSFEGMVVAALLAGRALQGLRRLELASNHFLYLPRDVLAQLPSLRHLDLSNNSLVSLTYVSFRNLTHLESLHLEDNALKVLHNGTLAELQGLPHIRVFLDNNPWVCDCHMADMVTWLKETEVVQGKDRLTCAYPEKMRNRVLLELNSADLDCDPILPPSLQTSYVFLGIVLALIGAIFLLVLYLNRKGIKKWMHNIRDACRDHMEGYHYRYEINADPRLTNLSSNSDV
Method: (§1) Human cancer cell lines (BxPC3, H146, H1975, HCT116, MCF7 and N87) expressing the tumor-associated 5T4 antigen were used to assay the binding of 5T4-targeting TriNKETs to the antigen. In separate experiments, the TriNKETs or the parental anti-5T4 monoclonal antibodies were incubated with the each of the cell lines, and the binding of the TriNKETs or anti-5T4 monoclonal antibodies to the cells was detected using fluorophore-conjugated anti-human IgG secondary antibodies. Flow cytometry was used to analyze the binding of the TriNKETs or anti-5T4 monoclonal antibodies to the cells, and fold-over-background (FOB) was calculated by normalizing the mean fluorescence intensity (MFI) to human recombinant IgG1 staining control.

[3] = molecular target: T1, 5T4 expressed on human cancer cell lines; assay: flow cytometry on 5T4-expressing human cancer cell lines
Method: as §1

[4] = molecular target: human NKG2D expressed on cells (primary human NK cells; EL4 mouse lymphoma cell lines engineered to express human NKG2D) (human) (UniProt P26718); assay: flow cytometry on primary human NK cells
[5] = molecular target: T1, 5T4 expressed on human cancer cell lines; assay: flow cytometry on BxPC3, H146, H1975, HCT116, MCF7 and N87 cells
[6] = molecular target: T1, 5T4 expressed on human cancer cell lines; assay: flow cytometry on N87 cells

Measured: binding

B1: A49-TriNKET-5T4R (bispecific antibody, V domains shown)
VH 1: EVQLVESGGGLVKPGGSLRLSCAASGFTFSSYSMNWVRQAPGKGLEWVSSISSSSSYIYYADSVKGRFTISRDNAKNSLYLQMNSLRAEDTAVYYCARGAPMGAAAGWFDPWGQGTLVTVSS
VL 1: DIQMTQSPSSVSASVGDRVTITCRASQGISSWLAWYQQKPGKAPKLLIYAASSLQSGVPSRFSGSGSGTDFTLTISSLQPEDFATYYCQQGVSFPRTFGGGTKVEIK
VH 2: EVHLLESGGGLVHPGGSLRLSCAASGFTFRSDAMHWVRQAPGKGLEWVSGVSGSGGSPYYADSVKGRFTISRDDSKTTLYLQMNSLRAEDTAVYYCATGGSIAGSYYYYPMDVWGQGTTVTVSS
VL 2: DIQMTQSPSSLSASVGDRVTITCQASQDISNYLNWYQQKPGKAPKLLIYAASTLQIGVPSRFSGSGSGTDFTFTISSLQPEDFATYYCQQANSFPLTFGGGTKVEIK
binds: [1] | [2] | [3] | [4] | [5] | [6]

B2: A49-TriNKET-5T4A (bispecific antibody, V domains shown)
VH 1: B1 VH 1
VL 1: B1 VL 1
VH 2: EVQLVESGGGLVQPGGSLRLSCAASGFTFSNYWMNWVRQAPGKGLEWVGEIRLKSDKYATYYAESVKGRFTISRDDSKNSLYLQMNNLKTEDTGVYYCARRRGYYGSAYGMDYWGQGTLVTVSS
VL 2: DIQMTQSPSSLSASVGDRVTITCKASQDINSYLSWFQQKPGKAPKILIYRANRLVDGVPSRFSGSGSGKDFTFTISSLQPEDIATYYCLQYDFLPLTFGGGTKVEIK
binds: [1] | [2] | [4] | [5] | [6]
